According to PMC7548010:
Results are given in words; binding and its absence hold for the method and conditions named. In cells and extracts the contact can be indirect. Binding calls can cover weak binding; strength is not graded here. Where a sequence is shown, tags or fusion partners need not be part of it.

Target: Flag-TRAF (N-terminal TRAF domain of USP7)
Assay: co-IP; Flag-USP7 or Flag-tagged truncated mutants (TRAF, CD, HUBL) transfected into SK-Hep1 cells; immunoprecipitation with flag antibody, immunoblotting for the endogenous partner

B1: SREBP1C (form not told, co-precipitated with Flag-tagged USP7 domains) (protein, UniProt P36956-3 1-1047)
chain: MDCTFEDMLQLINNQDSDFPGLFDPPYAGSGAGGTDPASPDTSSPGSLSPPPATLSSSLEAFLSGPQAAPSPLSPPQPAPTPLKMYPSMPAFSPGPGIKEESVPLSILQTPTPQPLPGALLPQSFPAPAPPQFSSTPVLGYPSPPGGFSTGSPPGNTQQPLPGLPLASPPGVPPVSLHTQVQSVVPQQLLTVTAAPTAAPVTTTVTSQIQQVPVLLQPHFIKADSLLLTAMKTDGATVKAAGLSPLVSGTTVQTGPLPTLVSGGTILATVPLVVDAEKLPINRLAAGSKAPASAQSRGEKRTAHNAIEKRYRSSINDKIIELKDLVVGTEAKLNKSAVLRKAIDYIRFLQHSNQKLKQENLSLRTAVHKSKSLKDLVSACGSGGNTDVLMEGVKTEVEDTLTPPPSDAGSPFQSSPLSLGSRGSGSGGSGSDSEPDSPVFEDSKAKPEQRPSLHSRGMLDRSRLALCTLVFLCLSCNPLASLLGARGLPSPSDTTSVYHSPGRNVLGTESRDGPGWAQWLLPPVVWLLNGLLVLVSLVLLFVYGEPVTRPHSGPAVYFWRHRKQADLDLARGDFAQAAQQLWLALRALGRPLPTSHLDLACSLLWNLIRHLLQRLWVGRWLAGRAGGLQQDCALRVDASASARDAALVYHKLHQLHTMGKHTGGHLTATNLALSALNLAECAGDAVSVATLAEIYVAAALRVKTSLPRALHFLTRFFLSSARQACLAQSGSVPPAMQWLCHPVGHRFFVDGDWSVLSTPWESLYSLAGNPVDPLAQVTQLFREHLLERALNCVTQPNPSPGSADGDKEFSDALGYLQLLNSCSDAAGAPAYSFSISSSMATTTGVDPVAKWWASLTAVVIHWLRRDEEAAERLCPLVEHLPRVLQESERPLPRAALHSFKAARALLGCAKAESGPASLTICEKASGYLQDSLATTPASSSIDKAVQLFLCDLLLVVRTSLWRQQQPPAPAPAAQGTSSRPQASALELRGFQRDLSSLRRLAQSFRPAMRRLMDVLTSESAWALPQHLGKGFPSPSGHKVPGWHGRMD
  binding: binds
